Common to all, as to test: High-throughput cell-surface marker screening (LEGENDScreen), %PE+
Holding throughout (format): cell-based, human
Common to all, as to conditions: percentage of cells bound to the PE-conjugated antibody (LEGENDScreen)

Series [1] deals with D3.5 SOX17-GFP- non-PGCs.
The subject of series [2] is D3.5 SOX17-GFP+ PGCs.
The test system of series [3] is undifferentiated hPSC (D0).

B1: CD36L1 (protein, UniProt Q8WTV0 1-552, looked up)
Scavenger receptor class B …: MGCSAKARWAAGALGVAGLLCAVLGAVMIVMVPSLIKQQVLKNVRIDPSSLSFNMWKEIPIPFYLSVYFFDVMNPSEILKGEKPQVRERGPYVYREFRHKSNITFNNNDTVSFLEYRTFQFQPSKSHGSESDYIVMPNILVLGAAVMMENKPMTLKLIMTLAFTTLGERAFMNRTVGEIMWGYKDPLVNLINKYFPGMFPFKDKFGLFAELNNSDSGLFTVFTGVQNISRIHLVDKWNGLSKVDFWHSDQCNMINGTSGQMWPPFMTPESSLEFYSPEACRSMKLMYKESGVFEGIPTYRFVAPKTLFANGSIYPPNEGFCPCLESGIQNVSTCRFSAPLFLSHPHFLNADPVLAEAVTGLHPNQEAHSLFLDIHPVTGIPMNCSVKLQLSLYMKSVAGIGQTGKIEPVVLPLLWFAESGAMEGETLHTFYTQLVLMPKVMHYAQYVLLALGCVLLLVPVICQIRSQVGAGQRAARADSHSLACWGKGASDRTLWPTAAWSPPPAAVLRLCRSGSGHCWGLRSTLASFACRVATTLPVLEGLGPSLGGGTGS
On to B1, for which the “% PE+ in non-PGCs” value in series [1] was 0%. The “% PE+ in PGCs” value in series [2] was 0%. For the same molecule, the “% PE+ in H1 UD” value in series [3] is recorded as 99.5%.

B2: CD62E (protein, UniProt P16581 22-610, looked up)
E-selectin: WSYNTSTEAMTYDEASAYCQQRYTHLVAIQNKEEIEYLNSILSYSPSYYWIGIRKVNNVWVWVGTQKPLTEEAKNWAPGEPNNRQKDEDCVEIYIKREKDVGMWNDERCSKKKLALCYTAACTNTSCSGHGECVETINNYTCKCDPGFSGLKCEQIVNCTALESPEHGSLVCSHPLGNFSYNSSCSISCDRGYLPSSMETMQCMSSGEWSAPIPACNVVECDAVTNPANGFVECFQNPGSFPWNTTCTFDCEEGFELMGAQSLQCTSSGNWDNEKPTCKAVTCRAVRQPQNGSVRCSHSPAGEFTFKSSCNFTCEEGFMLQGPAQVECTTQGQWTQQIPVCEAFQCTALSNPERGYMNCLPSASGSFRYGSSCEFSCEQGFVLKGSKRLQCGPTGEWDNEKPTCEAVRCDAVHQPPKGLVRCAHSPIGEFTYKSSCAFSCEEGFELHGSTQLECTSQGQWTEEVPSCQVVKCSSLAVPGKINMSCSGEPVFGTVCKFACPEGWTLNGSAARTCGATGHWSGLLPTCEAPTESNIPLVAGLSAAGLSLLTLAPFLLWLRKCLRKAKKFVPASSCQSLESDGSYQKPSYIL
Consider B2, for which, in series [1], the “% PE+ in non-PGCs” value worked out at 0.0001531%. Moreover, the “% PE+ in PGCs” value in series [2] was determined as 0%. The “% PE+ in H1 UD” value in series [3] was 0.13%.

B3: CD105 (Endoglin) (protein, UniProt P17813 26-658, looked up)
Endoglin: ETVHCDLQPVGPERGEVTYTTSQVSKGCVAQAPNAILEVHVLFLEFPTGPSQLELTLQASKQNGTWPREVLLVLSVNSSVFLHLQALGIPLHLAYNSSLVTFQEPPGVNTTELPSFPKTQILEWAAERGPITSAAELNDPQSILLRLGQAQGSLSFCMLEASQDMGRTLEWRPRTPALVRGCHLEGVAGHKEAHILRVLPGHSAGPRTVTVKVELSCAPGDLDAVLILQGPPYVSWLIDANHNMQIWTTGEYSFKIFPEKNIRGFKLPDTPQGLLGEARMLNASIVASFVELPLASIVSLHASSCGGRLQTSPAPIQTTPPKDTCSPELLMSLIQTKCADDAMTLVLKKELVAHLKCTITGLTFWDPSCEAEDRGDKFVLRSAYSSCGMQVSASMISNEAVVNILSSSSPQRKKVHCLNMDSLSFQLGLYLSPHFLQASNTIEPGQQSFVQVRVSPSVSEFLLQLDSCHLDLGPEGGTVELIQGRAAKGNCVSLLSPSPEGDPRFSFLLHFYTVPIPKTGTLSCTVALRPKTGSQDQEVHRTVFMRLNIISPDLSGCTSKGLVLPAVLGITFGAFLIGALLTAALWYIYSHTRSPSKREPVVAVAAPASSESSSTNHSIGSTQSTPCSTSSMA
As for B3, the “% PE+ in non-PGCs” value in series [1] was 0.2105%. Moreover, in series [2], the “% PE+ in PGCs” value came to 0.09244%. In addition, in series [3], the “% PE+ in H1 UD” value came out at 77%.

B4: CD45 (protein, UniProt P08575 26-1306, looked up)
Receptor-type …: QSPTPSPTGLTTAKMPSVPLSSDPLPTHTTAFSPASTFERENDFSETTTSLSPDNTSTQVSPDSLDNASAFNTTGVSSVQTPHLPTHADSQTPSAGTDTQTFSGSAANAKLNPTPGSNAISDVPGERSTASTFPTDPVSPLTTTLSLAHHSSAALPARTSNTTITANTSDAYLNASETTTLSPSGSAVISTTTIATTPSKPTCDEKYANITVDYLYNKETKLFTAKLNVNENVECGNNTCTNNEVHNLTECKNASVSISHNSCTAPDKTLILDVPPGVEKFQLHDCTQVEKADTTICLKWKNIETFTCDTQNITYRFQCGNMIFDNKEIKLENLEPEHEYKCDSEILYNNHKFTNASKIIKTDFGSPGEPQIIFCRSEAAHQGVITWNPPQRSFHNFTLCYIKETEKDCLNLDKNLIKYDLQNLKPYTKYVLSLHAYIIAKVQRNGSAAMCHFTTKSAPPSQVWNMTVSMTSDNSMHVKCRPPRDRNGPHERYHLEVEAGNTLVRNESHKNCDFRVKDLQYSTDYTFKAYFHNGDYPGEPFILHHSTSYNSKALIAFLAFLIIVTSIALLVVLYKIYDLHKKRSCNLDEQQELVERDDEKQLMNVEPIHADILLETYKRKIADEGRLFLAEFQSIPRVFSKFPIKEARKPFNQNKNRYVDILPYDYNRVELSEINGDAGSNYINASYIDGFKEPRKYIAAQGPRDETVDDFWRMIWEQKATVIVMVTRCEEGNRNKCAEYWPSMEEGTRAFGDVVVKINQHKRCPDYIIQKLNIVNKKEKATGREVTHIQFTSWPDHGVPEDPHLLLKLRRRVNAFSNFFSGPIVVHCSAGVGRTGTYIGIDAMLEGLEAENKVDVYGYVVKLRRQRCLMVQVEAQYILIHQALVEYNQFGETEVNLSELHPYLHNMKKRDPPSEPSPLEAEFQRLPSYRSWRTQHIGNQEENKSKNRNSNVIPYDYNRVPLKHELEMSKESEHDSDESSDDDSDSEEPSKYINASFIMSYWKPEVMIAAQGPLKETIGDFWQMIFQRKVKVIVMLTELKHGDQEICAQYWGEGKQTYGDIEVDLKDTDKSSTYTLRVFELRHSKRKDSRTVYQYQYTNWSVEQLPAEPKELISMIQVVKQKLPQKNSSEGNKHHKSTPLLIHCRDGSQQTGIFCALLNLLESAETEEVVDIFQVVKALRKARPGMVSTFEQYQFLYDVIASTYPAQNGQVKKNNHQEDKIEFDNEVDKVKQDANCVNPLGAPEKLPEAKEQAEGSEPTSGTEGPEHSVNGPASPALNQGS
For the molecule B4, the “% PE+ in non-PGCs” value in series [1] was 0.01863%. The “% PE+ in PGCs” value in series [2] was 0.007105%. In addition, the “% PE+ in H1 UD” value in series [3] is reported as 0.2%.

B5: CD365 (protein, UniProt Q96D42 21-364, looked up)
Hepatitis A virus cellular …: SVKVGGEAGPSVTLPCHYSGAVTSMCWNRGSCSLFTCQNGIVWTNGTHVTYRKDTRYKLLGDLSRRDVSLTIENTAVSDSGVYCCRVEHRGWFNDMKITVSLEIVPPKVTTTPIVTTVPTVTTVRTSTTVPTTTTVPMTTVPTTTVPTTMSIPTTTTVLTTMTVSTTTSVPTTTSIPTTTSVPVTTTVSTFVPPMPLPRQNHEPVATSPSSPQPAETHPTTLQGAIRREPTSSPLYSYTTDGNDTVTESSDGLWNNNQTQLFLEHSLLTANTTKGIYAGVCISVLVLLALLGVIIAKKYFFKKEVQQLSVSFSSLQIKALQNAVEKEVQAEDNIYIENSLYATD
On to B5, for which, in series [1], the “% PE+ in non-PGCs” value worked out at 0.5091%. Besides, the “% PE+ in PGCs” value in series [2] is recorded as 0.3529%. Also, the “% PE+ in H1 UD” value in series [3] amounted to 0.28%.

B6: CD55 (protein, UniProt P08174 35-353, looked up)
Complement decay-accelerating …: DCGLPPDVPNAQPALEGRTSFPEDTVITYKCEESFVKIPGEKDSVICLKGSQWSDIEEFCNRSCEVPTRLNSASLKQPYITQNYFPVGTVVEYECRPGYRREPSLSPKLTCLQNLKWSTAVEFCKKKSCPNPGEIRNGQIDVPGGILFGATISFSCNTGYKLFGSTSSFCLISGSSVQWSDPLPECREIYCPAPPQIDNGIIQGERDHYGYRQSVTYACNKGFTMIGEHSIYCTVNNDEGEWSGPPPECRGKSLTSKVPPTVQKPTTVNVPTTEVSPTSQKTTTKTTTPNAQATRSTPVSRTTKHFHETTPNKGSGTTS
As for B6, the “% PE+ in non-PGCs” value in series [1] was determined as 0.007286%. In addition, in series [2], the “% PE+ in PGCs” value came to 0.05532%. Also, in series [3], the “% PE+ in H1 UD” value stood at 99.8%.

B7: CD10 (protein, UniProt P08473 2-750, looked up)
Neprilysin: GKSESQMDITDINTPKPKKKQRWTPLEISLSVLVLLLTIIAVTMIALYATYDDGICKSSDCIKSAARLIQNMDATTEPCTDFFKYACGGWLKRNVIPETSSRYGNFDILRDELEVVLKDVLQEPKTEDIVAVQKAKALYRSCINESAIDSRGGEPLLKLLPDIYGWPVATENWEQKYGASWTAEKAIAQLNSKYGKKVLINLFVGTDDKNSVNHVIHIDQPRLGLPSRDYYECTGIYKEACTAYVDFMISVARLIRQEERLPIDENQLALEMNKVMELEKEIANATAKPEDRNDPMLLYNKMTLAQIQNNFSLEINGKPFSWLNFTNEIMSTVNISITNEEDVVVYAPEYLTKLKPILTKYSARDLQNLMSWRFIMDLVSSLSRTYKESRNAFRKALYGTTSETATWRRCANYVNGNMENAVGRLYVEAAFAGESKHVVEDLIAQIREVFIQTLDDLTWMDAETKKRAEEKALAIKERIGYPDDIVSNDNKLNNEYLELNYKEDEYFENIIQNLKFSQSKQLKKLREKVDKDEWISGAAVVNAFYSSGRNQIVFPAGILQPPFFSAQQSNSLNYGGIGMVIGHEITHGFDDNGRNFNKDGDLVDWWTQQSASNFKEQSQCMVYQYGNFSWDLAGGQHLNGINTLGENIADNGGLGQAYRAYQNYIKKNGEEKLLPGLDLNHKQLFFLNFAQVWCGTYRPEYAVNSIKTDVHSPGNFRIIGTLQNSAEFSEAFHCRKNSYMNPEKKCRVW
In the case of B7, the “% PE+ in non-PGCs” value in series [1] was 0.4265%. In series [2], the “% PE+ in PGCs” value turned out to be 0.5426%. For the same molecule, the “% PE+ in H1 UD” value in series [3] stood at 99.7%.

B8: CD90 (protein, UniProt P04216 20-130, looked up)
Thy-1 membrane glycoprotein: QKVTSLTACLVDQSLRLDCRHENTSSSPIQYEFSLTRETKKHVLFGTVGVPEHTYRSRTNFTSKYNMKVLYLSAFTSKDEGTYTCALHHSGHSPPISSQNVTVLRDKLVKC
B8: the “% PE+ in non-PGCs” value in series [1] was 0.0001317%. The “% PE+ in PGCs” value in series [2] is 0%. Besides, in series [3], the “% PE+ in H1 UD” value is 99.9%.

B9: CD9 (protein, UniProt P21926 2-228, looked up)
CD9 antigen: PVKGGTKCIKYLLFGFNFIFWLAGIAVLAIGLWLRFDSQTKSIFEQETNNNNSSFYTGVYILIGAGALMMLVGFLGCCGAVQESQCMLGLFFGFLLVIFAIEIAAAIWGYSHKDEVIKEVQEFYKDTYNKLKTKDEPQRETLKAIHYALNCCGLAGGVEQFISDICPKKDVLETFTVKSCPDAIKEVFDNKFHIIGAVGIGIAVVMIFGMIFSMILCCAIRRNREMV
As for B9, the “% PE+ in non-PGCs” value in series [1] is 0.0001621%. Also, the “% PE+ in PGCs” value in series [2] is 0%. Also, the “% PE+ in H1 UD” value in series [3] was found to be 99.7%.

The values are drawn from US20230242871A1, “GENERATION OF PRIMORDIAL GERM CELLS AND METHODS OF USING THE SAME” (The Board of Trustees of the Leland Stanfor Junior …, priority 2020, published 2023).
